According to PMC8500230:
No constants are given. Whether binding was seen depends on the method and setting. In cells and extracts the contact can be indirect. Here binding means that the protein was enriched with, or labelled near, the bait; the list need not be complete. For part of these data: Where a sequence is shown, tags or fusion partners need not be part of it.

Protein sequences, listed by entry. Tags and fused reporters are not part of them. Lines headed by an entry give the natural chain unless they say otherwise; changes in a name come on top.
UniProt F4J4R5: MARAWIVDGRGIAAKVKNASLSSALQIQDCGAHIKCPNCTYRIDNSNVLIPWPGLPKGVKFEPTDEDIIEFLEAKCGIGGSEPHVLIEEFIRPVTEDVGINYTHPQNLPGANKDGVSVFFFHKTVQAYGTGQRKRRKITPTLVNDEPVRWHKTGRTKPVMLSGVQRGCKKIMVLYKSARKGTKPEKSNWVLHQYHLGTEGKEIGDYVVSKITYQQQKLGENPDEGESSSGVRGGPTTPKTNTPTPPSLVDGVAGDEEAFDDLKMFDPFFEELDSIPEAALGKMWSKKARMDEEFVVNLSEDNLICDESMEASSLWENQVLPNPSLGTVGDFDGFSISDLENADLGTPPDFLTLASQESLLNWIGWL
UniProt Q9FV71: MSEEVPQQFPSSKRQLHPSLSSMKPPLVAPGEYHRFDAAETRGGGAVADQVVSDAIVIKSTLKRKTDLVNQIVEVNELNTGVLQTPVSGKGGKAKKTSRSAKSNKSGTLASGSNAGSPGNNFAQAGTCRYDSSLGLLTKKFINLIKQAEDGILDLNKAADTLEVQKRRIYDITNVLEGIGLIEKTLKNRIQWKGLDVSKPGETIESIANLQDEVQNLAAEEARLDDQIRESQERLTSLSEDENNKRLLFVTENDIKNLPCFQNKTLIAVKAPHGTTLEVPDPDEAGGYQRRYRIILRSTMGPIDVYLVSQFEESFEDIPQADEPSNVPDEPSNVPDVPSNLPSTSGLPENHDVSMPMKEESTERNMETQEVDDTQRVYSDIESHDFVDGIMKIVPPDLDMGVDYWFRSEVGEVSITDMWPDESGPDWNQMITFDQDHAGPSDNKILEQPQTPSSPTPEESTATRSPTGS
UniProt Q9FNY0: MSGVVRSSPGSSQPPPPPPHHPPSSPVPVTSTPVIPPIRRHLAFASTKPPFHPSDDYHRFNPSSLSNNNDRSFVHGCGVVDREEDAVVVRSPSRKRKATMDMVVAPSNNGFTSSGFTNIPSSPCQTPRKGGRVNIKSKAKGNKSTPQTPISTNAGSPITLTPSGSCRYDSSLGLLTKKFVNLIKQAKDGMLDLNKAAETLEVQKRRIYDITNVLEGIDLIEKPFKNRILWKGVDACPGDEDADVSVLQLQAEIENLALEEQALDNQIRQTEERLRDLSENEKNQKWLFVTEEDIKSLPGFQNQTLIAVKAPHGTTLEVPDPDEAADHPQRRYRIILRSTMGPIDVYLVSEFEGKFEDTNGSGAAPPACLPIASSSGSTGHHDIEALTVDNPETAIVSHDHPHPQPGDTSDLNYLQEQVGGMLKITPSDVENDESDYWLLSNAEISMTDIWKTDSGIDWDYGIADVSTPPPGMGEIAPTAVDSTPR

Key:
[1] = target: N-terminally tagged LIN52A (TAP bait) (Arabidopsis thaliana); assay: affinity purification with mass spectrometry; tandem affinity purification (GS^rhino tag) from Arabidopsis PSB-D cell suspension cultures expressing the tagged bait under the 35S promoter; 30 uM cisplatin added 16 h before harvest; 100 mg total protein extract; on-bead digest, LC-MS/MS; in …
[2] = target: T1, N-terminally tagged TCX5 (TAP bait) (Arabidopsis thaliana) (UniProt Q9SZD1); assay: as above
T1 sequence: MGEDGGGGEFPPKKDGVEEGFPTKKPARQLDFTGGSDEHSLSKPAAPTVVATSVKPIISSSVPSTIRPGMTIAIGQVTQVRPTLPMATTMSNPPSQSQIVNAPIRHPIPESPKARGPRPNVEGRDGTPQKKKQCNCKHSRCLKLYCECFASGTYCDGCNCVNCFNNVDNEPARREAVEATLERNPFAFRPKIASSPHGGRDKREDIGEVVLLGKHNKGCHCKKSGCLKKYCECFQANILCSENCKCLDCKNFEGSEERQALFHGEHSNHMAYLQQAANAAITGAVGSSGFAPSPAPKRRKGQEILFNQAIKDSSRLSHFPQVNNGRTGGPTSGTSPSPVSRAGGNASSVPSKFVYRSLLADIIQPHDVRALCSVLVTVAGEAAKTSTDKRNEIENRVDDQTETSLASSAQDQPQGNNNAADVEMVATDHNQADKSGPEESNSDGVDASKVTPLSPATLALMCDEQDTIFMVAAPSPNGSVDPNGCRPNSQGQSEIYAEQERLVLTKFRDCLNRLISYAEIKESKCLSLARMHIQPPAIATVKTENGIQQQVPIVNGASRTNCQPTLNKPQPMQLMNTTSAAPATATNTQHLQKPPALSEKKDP

[3] = target: C-terminally tagged NAC044 (TAP bait) (Arabidopsis thaliana) (UniProt F4J4R5); assay: as above
[4] = target: T2, C-terminally tagged TCX5 (TAP bait) (Arabidopsis thaliana) (UniProt Q9SZD1); assay: as above
T2 sequence: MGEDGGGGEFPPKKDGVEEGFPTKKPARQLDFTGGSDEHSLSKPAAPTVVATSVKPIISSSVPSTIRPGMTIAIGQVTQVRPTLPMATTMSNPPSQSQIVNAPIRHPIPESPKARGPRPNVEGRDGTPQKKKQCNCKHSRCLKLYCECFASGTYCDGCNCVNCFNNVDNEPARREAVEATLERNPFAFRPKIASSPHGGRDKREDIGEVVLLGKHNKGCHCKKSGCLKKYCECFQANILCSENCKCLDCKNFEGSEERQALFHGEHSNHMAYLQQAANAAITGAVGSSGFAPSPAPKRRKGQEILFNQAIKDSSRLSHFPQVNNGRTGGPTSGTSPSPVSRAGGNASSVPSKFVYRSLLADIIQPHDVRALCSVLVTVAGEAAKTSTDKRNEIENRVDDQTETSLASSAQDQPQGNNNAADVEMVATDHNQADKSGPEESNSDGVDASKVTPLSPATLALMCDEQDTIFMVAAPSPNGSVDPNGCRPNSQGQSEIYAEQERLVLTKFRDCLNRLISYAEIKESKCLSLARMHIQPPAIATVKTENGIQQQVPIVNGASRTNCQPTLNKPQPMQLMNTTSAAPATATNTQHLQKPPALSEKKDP

[5] = target: T3, E2FC-GFP (Arabidopsis thaliana) (UniProt Q9FV70); assay: affinity purification with mass spectrometry; FP-IP: anti-GFP antibody on magnetic beads, total protein extracts (4 mg/IP) of Arabidopsis seedlings expressing the GFP- or CFP-tagged bait under its own promoter; GFP alone as control; standard conditions, various growth regimes (meta-analysis of 182 IPs), with or without 50 uM cisplatin for 24 h; label-free LC-MS/MS
T3 sequence: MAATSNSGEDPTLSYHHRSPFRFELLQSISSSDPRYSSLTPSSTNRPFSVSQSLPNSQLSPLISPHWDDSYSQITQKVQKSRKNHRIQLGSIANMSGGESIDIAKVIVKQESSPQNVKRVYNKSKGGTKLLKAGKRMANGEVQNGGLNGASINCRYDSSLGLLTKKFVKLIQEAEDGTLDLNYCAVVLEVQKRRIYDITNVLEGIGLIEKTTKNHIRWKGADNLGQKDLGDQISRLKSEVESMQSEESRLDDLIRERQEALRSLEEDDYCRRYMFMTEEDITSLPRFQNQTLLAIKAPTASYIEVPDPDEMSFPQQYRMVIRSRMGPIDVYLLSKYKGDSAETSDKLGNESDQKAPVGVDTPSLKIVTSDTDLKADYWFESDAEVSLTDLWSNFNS

[6] = target: E2FB-GFP (Arabidopsis thaliana) (UniProt Q9FV71); assay: as above
[7] = target: T4, DPA-GFP (Arabidopsis thaliana) (UniProt Q9FNY3); assay: as above
T4 sequence: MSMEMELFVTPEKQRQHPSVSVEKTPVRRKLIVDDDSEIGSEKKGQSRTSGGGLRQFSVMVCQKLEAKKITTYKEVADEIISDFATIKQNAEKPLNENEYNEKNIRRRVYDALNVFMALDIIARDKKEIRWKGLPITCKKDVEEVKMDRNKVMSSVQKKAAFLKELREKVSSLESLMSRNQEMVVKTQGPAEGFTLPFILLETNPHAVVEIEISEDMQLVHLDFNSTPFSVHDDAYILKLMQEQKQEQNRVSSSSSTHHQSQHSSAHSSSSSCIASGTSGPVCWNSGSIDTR

[8] = target: E2FA-GFP (Arabidopsis thaliana) (UniProt Q9FNY0); assay: as above
[9] = target: T5, DPB-3xCFP (Arabidopsis thaliana), Q9FNY2; assay: as above; settings: remark: other sources report otherwise
T5 chain: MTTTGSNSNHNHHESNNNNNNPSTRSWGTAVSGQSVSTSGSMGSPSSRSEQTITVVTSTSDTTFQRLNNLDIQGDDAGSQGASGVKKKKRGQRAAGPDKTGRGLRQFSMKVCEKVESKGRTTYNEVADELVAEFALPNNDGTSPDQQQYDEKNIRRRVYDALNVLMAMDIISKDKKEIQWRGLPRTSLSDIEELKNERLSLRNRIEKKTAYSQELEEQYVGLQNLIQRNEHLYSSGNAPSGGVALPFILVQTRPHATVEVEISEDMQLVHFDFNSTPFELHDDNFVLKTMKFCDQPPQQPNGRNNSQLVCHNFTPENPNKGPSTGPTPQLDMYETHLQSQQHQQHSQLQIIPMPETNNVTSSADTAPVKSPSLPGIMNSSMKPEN

Row | Binder | binding [1] | binding [2] | binding [3] | binding [4] | binding [5] | binding [6] | binding [7] | binding [8] | binding [9]
1 | RETINOBLASTOMA-RELATED 1 (RBR1) (protein, UniProt Q9LKZ3 1-1013) MEEVQPPVTPPIEPNGKRSEASLLDICEKVLSLDGSTCDEALKLFTETKRILSASMSNIGSGTREEVERFWFAFILYSVKRLSVRKEADGLSVSGDNEFNLCQILRALKLNIVDFFKELPQFVVKAGSVLGELYGADWENRLQAKEVQANFVHLSLLSKYYKRGFREFFLTYDANAEKNSANSSTYLLDSYRFGWLLFLALRNHAFSRFKDLVTCSNGVVSILAILIIHVPCRFRNFSIQDSSRFVKKGDKGVDLVASLCKIYDASEDELRIVIDKANNLVETILKKKPSPASECQTDKLDNIDPDGLTYFEDLLEETSISTSLITLEKDYYDGKGELDERVFINEEDSLLGSGSLSAGAVNITGVKRKIDALSSPARTFISPLSPHKSPAAKTNGISGATKLAATPVSTAMTTAKWLRTVISPLLPKPSPGLEHFLKSCDRDITNDVTRRAHIILEAIFPNSSLGAQCGGGSLQAVDLMDDIWAEQRRLEACKLYYRVLEAMCKAEAQILHANNLNSLLTNERFHRCMLACSAELVLATHKTITMLFPAVLERTGITAFDLSKVIESFIRHEDSLPRELRRHLNSLEERLLESMVWEKGSSMYNSLIVARPSLALEINQLGLLAEPMPSLDAIAALINFSDGANHASSVQKHETCPGQNGGIRSPKRLCTDYRSILVERNSFTSPVKDRLLALGNVKSKMLPPPLQSAFASPTRPNPGGGGETCAETGINIFFTKINKLAAVRINGMVERLQLSQQIRESVYCFFQHVLAQRTSLLFSRHIDQIILCCFYGVAKISQMSLTFREIIYNYRKQPQCKPLVFRSVYVDALQCRRQGRIGPDHVDIITFYNEIFIPAVKPLLVELGPVRNDRAVEANNKPEGQCPGSPKVSVFPSVPDMSPKKVSAVHNVYVSPLRGSKMDALISHSTKSYYACVGESTHAYQSPSKDLSAINNRLNNSSSNRKRTLNFDAEAGMVSDSMVANSLNLQNQNQNQNGSDASSSGGAAPLKTEPTDS | binds | binds | binds weakly | binds | binds | binds | binds | binds | 
2 | RETINOBLASTOMA-RELATED 1 (RBR1), Q9LKZ3 1-1013 (protein) MEEVQPPVTPPIEPNGKRSEASLLDICEKVLSLDGSTCDEALKLFTETKRILSASMSNIGSGTREEVERFWFAFILYSVKRLSVRKEADGLSVSGDNEFNLCQILRALKLNIVDFFKELPQFVVKAGSVLGELYGADWENRLQAKEVQANFVHLSLLSKYYKRGFREFFLTYDANAEKNSANSSTYLLDSYRFGWLLFLALRNHAFSRFKDLVTCSNGVVSILAILIIHVPCRFRNFSIQDSSRFVKKGDKGVDLVASLCKIYDASEDELRIVIDKANNLVETILKKKPSPASECQTDKLDNIDPDGLTYFEDLLEETSISTSLITLEKDYYDGKGELDERVFINEEDSLLGSGSLSAGAVNITGVKRKIDALSSPARTFISPLSPHKSPAAKTNGISGATKLAATPVSTAMTTAKWLRTVISPLLPKPSPGLEHFLKSCDRDITNDVTRRAHIILEAIFPNSSLGAQCGGGSLQAVDLMDDIWAEQRRLEACKLYYRVLEAMCKAEAQILHANNLNSLLTNERFHRCMLACSAELVLATHKTITMLFPAVLERTGITAFDLSKVIESFIRHEDSLPRELRRHLNSLEERLLESMVWEKGSSMYNSLIVARPSLALEINQLGLLAEPMPSLDAIAALINFSDGANHASSVQKHETCPGQNGGIRSPKRLCTDYRSILVERNSFTSPVKDRLLALGNVKSKMLPPPLQSAFASPTRPNPGGGGETCAETGINIFFTKINKLAAVRINGMVERLQLSQQIRESVYCFFQHVLAQRTSLLFSRHIDQIILCCFYGVAKISQMSLTFREIIYNYRKQPQCKPLVFRSVYVDALQCRRQGRIGPDHVDIITFYNEIFIPAVKPLLVELGPVRNDRAVEANNKPEGQCPGSPKVSVFPSVPDMSPKKVSAVHNVYVSPLRGSKMDALISHSTKSYYACVGESTHAYQSPSKDLSAINNRLNNSSSNRKRTLNFDAEAGMVSDSMVANSLNLQNQNQNQNGSDASSSGGAAPLKTEPTDS |  |  |  |  |  |  |  |  | binds
